Experimental data: paper PMC8372377

Protein sequences, listed by entry. Tags and fused reporters are not part of them. Lines headed by an entry give the natural chain unless they say otherwise; changes in a name come on top.
UniProt Q9NPQ8: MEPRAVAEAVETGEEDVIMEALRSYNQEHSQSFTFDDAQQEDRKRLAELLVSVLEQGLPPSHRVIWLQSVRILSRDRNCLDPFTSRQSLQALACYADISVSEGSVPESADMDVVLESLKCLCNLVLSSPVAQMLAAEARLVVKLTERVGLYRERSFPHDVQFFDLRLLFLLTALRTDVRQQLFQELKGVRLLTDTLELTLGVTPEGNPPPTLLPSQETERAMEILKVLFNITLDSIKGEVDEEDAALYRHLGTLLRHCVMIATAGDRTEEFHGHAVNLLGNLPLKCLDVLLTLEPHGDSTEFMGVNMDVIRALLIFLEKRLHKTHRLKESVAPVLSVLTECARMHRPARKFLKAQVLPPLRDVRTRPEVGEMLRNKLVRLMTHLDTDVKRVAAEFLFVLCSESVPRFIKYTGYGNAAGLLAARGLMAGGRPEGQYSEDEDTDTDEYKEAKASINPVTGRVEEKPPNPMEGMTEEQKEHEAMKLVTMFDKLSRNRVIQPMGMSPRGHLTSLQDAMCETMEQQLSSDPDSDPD

B1: Myc-MID1 (protein, UniProt O15344 1-667)
chain: METLESELTCPICLELFEDPLLLPCAHSLCFNCAHRILVSHCATNESVESITAFQCPTCRHVITLSQRGLDGLKRNVTLQNIIDRFQKASVSGPNSPSETRRERAFDANTMTSAEKVLCQFCDQDPAQDAVKTCVTCEVSYCDECLKATHPNKKPFTGHRLIEPIPDSHIRGLMCLEHEDEKVNMYCVTDDQLICALCKLVGRHRDHQVAALSERYDKLKQNLESNLTNLIKRNTELETLLAKLIQTCQHVEVNASRQEAKLTEECDLLIEIIQQRRQIIGTKIKEGKVMRLRKLAQQIANCKQCIERSASLISQAEHSLKENDHARFLQTAKNITERVSMATASSQVLIPEINLNDTFDTFALDFSREKKLLECLDYLTAPNPPTIREELCTASYDTITVHWTSDDEFSVVSYELQYTIFTGQANVVSLCNSADSWMIVPNIKQNHYTVHGLQSGTKYIFMVKAINQAGSRSSEPGKLKTNSQPFKLDPKSAHRKLKVSHDNLTVERDESSSKKSHTPERFTSQGSYGVAGNVFIDSGRHYWEVVISGSTWYAIGLAYKSAPKHEWIGKNSASWALCRCNNNWVVRHNSKEIPIEPAPHLRRVGILLDYDNGSIAFYDALNSIHLYTFDVAFAQPVCPTFTVWNKCLTIITGLPIPDHLDCTEQLP
B2: Myc-MID1 (purified) (protein, UniProt O15344 1-667)
chain: METLESELTCPICLELFEDPLLLPCAHSLCFNCAHRILVSHCATNESVESITAFQCPTCRHVITLSQRGLDGLKRNVTLQNIIDRFQKASVSGPNSPSETRRERAFDANTMTSAEKVLCQFCDQDPAQDAVKTCVTCEVSYCDECLKATHPNKKPFTGHRLIEPIPDSHIRGLMCLEHEDEKVNMYCVTDDQLICALCKLVGRHRDHQVAALSERYDKLKQNLESNLTNLIKRNTELETLLAKLIQTCQHVEVNASRQEAKLTEECDLLIEIIQQRRQIIGTKIKEGKVMRLRKLAQQIANCKQCIERSASLISQAEHSLKENDHARFLQTAKNITERVSMATASSQVLIPEINLNDTFDTFALDFSREKKLLECLDYLTAPNPPTIREELCTASYDTITVHWTSDDEFSVVSYELQYTIFTGQANVVSLCNSADSWMIVPNIKQNHYTVHGLQSGTKYIFMVKAINQAGSRSSEPGKLKTNSQPFKLDPKSAHRKLKVSHDNLTVERDESSSKKSHTPERFTSQGSYGVAGNVFIDSGRHYWEVVISGSTWYAIGLAYKSAPKHEWIGKNSASWALCRCNNNWVVRHNSKEIPIEPAPHLRRVGILLDYDNGSIAFYDALNSIHLYTFDVAFAQPVCPTFTVWNKCLTIITGLPIPDHLDCTEQLP

What was measured:
Myc-MID1 = biological target: T1, Myc-MID1 (UniProt O15344); assay: co-IP; HEK-293T cells transfected with Myc-MID1 and Flag-RIC8A WT, N-terminal domain or C-terminal domain plasmids; Flag examined by western blotting
T1 sequence: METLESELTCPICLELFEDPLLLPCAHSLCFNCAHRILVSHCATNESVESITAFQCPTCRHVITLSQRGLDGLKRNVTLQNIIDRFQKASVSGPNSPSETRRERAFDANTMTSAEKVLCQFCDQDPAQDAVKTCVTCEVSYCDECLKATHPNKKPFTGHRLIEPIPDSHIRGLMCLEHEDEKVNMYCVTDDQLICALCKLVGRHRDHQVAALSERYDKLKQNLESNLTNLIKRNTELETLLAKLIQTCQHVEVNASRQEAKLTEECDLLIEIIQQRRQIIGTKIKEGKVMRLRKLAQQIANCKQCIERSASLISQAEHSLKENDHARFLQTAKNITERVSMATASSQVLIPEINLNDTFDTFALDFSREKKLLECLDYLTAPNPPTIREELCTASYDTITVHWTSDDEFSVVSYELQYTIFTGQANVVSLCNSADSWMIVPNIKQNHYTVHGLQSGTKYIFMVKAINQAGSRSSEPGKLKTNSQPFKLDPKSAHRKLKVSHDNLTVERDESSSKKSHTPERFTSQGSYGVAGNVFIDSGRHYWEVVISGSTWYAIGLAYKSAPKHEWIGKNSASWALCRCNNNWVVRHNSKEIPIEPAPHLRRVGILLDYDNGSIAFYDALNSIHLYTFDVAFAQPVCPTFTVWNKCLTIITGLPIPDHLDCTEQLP

Flag-RIC8A WT = assay: co-IP; sequential IP: HEK-293T cells with Myc-MID1 and Flag-RIC8A; first Flag IP, rinsing with Flag peptides, eluates to a second IP with Myc antibodies or matching IgG; western blot
GST-RIC8A = GST-RIC8A (UniProt Q9NPQ8); assay: pull-down; GST pull-down; GST-RIC8A and Myc-MID1 overexpressed and purified from cells; with or without circPDE4B RNA; GST as control; both purified

| Molecule | binding (Myc-MID1) | other results |
| --- | --- | --- |
| Flag-RIC8A N-terminal domain (1-153 amino acids) (domain or fragment) | binds |  |
| Flag-RIC8A WT | binds |  |
| B1 |  | binding (Flag-RIC8A WT): binds |
| B2 |  | binding (GST-RIC8A): binds |

Results are given in words; binding and its absence hold for the method and conditions named. Binding can be weak; no strength is given. Tags and fused reporters may be left off the sequences shown. For some of these results: In cells and extracts the contact can be indirect.
